Results: PubChem BioAssay AID445 (National Center for Advancing Translational Sciences (NCATS), 2006)
The other results are listed elsewhere or left out. Further columns of the screen follow, without active or inactive calls. Compounds called inactive in the main read-out are mostly missing here. Potencies come from curve fits of mixed quality, noted in brackets.

Test: IkB Signaling
Conditions: ABC-DLBCL IkBa-CBG/CBR dual luciferase ratio (green luciferase fused to IkBa over red control in OCI-Ly3 lymphoma cells), 4 h; measured here: control luc red channel unless noted
In short: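 In this assay, an IκBα–CBG68 fusion accumulates when IKK-driven degradation is blocked; native CBR normalizes for cell number. OCI-Ly3 cells were treated 4 h with compound and doxycycline, then green and red light read after Chroma-Glo addition.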
For `COc1ccc(C)cc1NC(=O)C(=O)NCC(c1cccnc1)N1CCN(c2ccccc2F)CC1` (stereo unspecified), the AC50 was 25.1 µM [falling, single point].
For `Cc1cc(C)c2nc(N3CCCC(C(=O)NCc4ccccc4F)C3)sc2c1` (stereo unspecified), the AC50 was 10 µM [falling, partial curve].
With `Cc1ccccc1C(=O)Nc1cc2c(cc1N1CCCCC1)n(C)c(=O)n2C` the AC50 was 3.16 µM [rising, partial curve, poor fit].
With `c1ccc2c(Nc3ccncc3)nc(-c3ccoc3)nc2c1` the AC50 was 3.16 µM [falling, partial curve] [measured here: IkB-luc green channel].
For `COc1cccc(C(=O)Oc2c(Sc3ccc(C)cc3)c(C)nn2C(C)(C)C)c1OC`, the AC50 was 3.16 µM [falling, full curve].
For `CC1CCCN(c2nc3c(c(=O)n(C)c(=O)n3C)n2Cc2ccccc2)C1` (stereo unspecified), the AC50 was 31.6 µM [falling, single point].
For `CCOc1ccccc1NC(=O)c1ccc(F)c(S(=O)(=O)N2CCN(c3ccc(F)cc3)CC2)c1`, the AC50 was 20 µM [falling, partial curve].
For `O=C(NCc1nnc(SCC(=O)N2CCC(Cc3ccccc3)CC2)o1)c1ccccc1F`, the AC50 was 12.6 µM [falling, partial curve].
With `O=C1COc2ccc(C(=O)CSc3nnc(Cc4cccs4)n3-c3ccccc3)cc2N1` the AC50 was 39.8 µM [falling, partial curve].
In the case of `Cc1cccc(C(=O)N2CCc3cc(CNC(=O)CSc4ccccc4)ccc32)c1`, the AC50 is reported as 20 µM [falling, single point].
In the case of `COc1cccc(-n2c(SCc3ccc(F)cc3)nc3c([nH]c4ccccc43)c2=O)c1`, the AC50 is reported as 10 µM [falling, partial curve].
With `COC(=O)c1ccc(NC(=O)CN(C)S(=O)(=O)c2ccc(Br)s2)cc1` the AC50 was 20 µM [falling, partial curve].
In the case of `Cc1nn2c(C)c(C(=O)NCc3ccc(OC(C)C)cc3)cnc2c1-c1ccc(F)cc1`, the AC50 is reported as 15.8 µM [falling, single point].
For `CCn1c(=O)cc(OCC(=O)N2CCN(c3cccc(C)c3C)CC2)c2ccccc21`, the AC50 was 12.6 µM [falling, partial curve].
With `Cc1cccc(NC(=O)CN2C(=O)C(c3ccc(F)cc3)=NC23CCCCCC3)c1` the AC50 was 15.8 µM [falling, partial curve].
For `CC(=O)c1c(C)oc2c1cc(NS(=O)(=O)c1ccc(C(C)(C)C)cc1)c1ccccc12`, the AC50 was 12.6 µM [falling, partial curve].
For `CNCCNS(=O)(=O)c1cccc2cnccc12`, the AC50 was 31.6 µM [falling, partial curve, poor fit] [measured here: IkB-luc green channel].
In the case of `Cc1ccc(CNC(=O)C(C)n2nc(C)c3sc4ccccc4c3c2=O)cc1` (stereo unspecified), the AC50 is reported as 5.01 µM [falling, partial curve].
For `Cc1ccc(CNC(=O)c2ccc(Nc3nc4ccccc4n4nnnc34)cc2)cc1`, the AC50 was 1 µM [falling, full curve].
In the case of `Cc1ccc(NC(=O)c2oc3c(c2C)-c2[nH]ncc2CC3)c(Cl)c1`, the AC50 is reported as 39.8 µM [falling, single point].
With `CC(C)c1ccc(NS(=O)(=O)c2cc(Br)cc3c2N(C(=O)C2CC2)CC3)cc1` the AC50 was 7.94 µM [falling, full curve].
With `Cc1ccc(S(=O)(=O)N(CCc2ccccc2)CC(=O)Nc2ccccc2C)cc1` the AC50 was 5.01 µM [falling, single point].
With `Cc1ccc(C(=O)N2CCn3c4c(c5cc(C)ccc53)CCCC42)cc1` (stereo unspecified) the AC50 was 7.94 µM [falling, full curve].
With `COc1ccc(CCNC(=O)c2ccc3c(c2)N(Cc2ccccc2)CCS3)cc1OC` the AC50 was 12.6 µM [falling, partial curve].
For `Cc1cc(C)cc(NS(=O)(=O)c2ccc3[nH]cc(C(=O)NCCc4ccccc4)c(=O)c3c2)c1`, the AC50 was 1 µM [falling, full curve, poor fit].
For `O=C(Cc1cccs1)Nc1nc(-c2ccccc2)cs1`, the AC50 was 3.98 µM [falling, partial curve].
With `COc1ccccc1CNC(=O)c1cc2c(s1)-c1ccc(Cl)cc1SC2` the AC50 was 0.398 µM [rising, partial curve, poor fit].
In the case of `CCOc1cccc(CC(=O)N2CCc3c([nH]c4ccc(OC)cc34)C2c2ccc(F)cc2)c1OCC` (stereo unspecified), the AC50 is reported as 15.8 µM [falling, partial curve].
In the case of `COc1ccccc1N1CCN(C(CNC(=O)C(=O)NCc2cccnc2)c2cccnc2)CC1` (stereo unspecified), the AC50 is reported as 12.6 µM [falling, partial curve].
With `CCCCOC(=O)CN1C(=O)c2ccc(C(=O)OCCCC)cc2C1=O` the AC50 was 20 µM [rising, partial curve] [measured here: IkB-luc green channel].
For `CCOC(=O)c1c(NC(=O)c2cc(-c3ccc(OC)c(OC)c3)on2)sc(C)c1C`, the AC50 was 0.631 µM [rising, full curve].
For `COc1cc(OC)cc(-c2nnc(SCC(=O)N3CCCc4ccccc43)o2)c1`, the AC50 was 20 µM [falling, partial curve].
For `Cc1ccc(CCNC(=O)c2ccc(CS(=O)(=O)Cc3cccc(C)c3)o2)cc1`, the AC50 was 39.8 µM [falling, single point].
With `COc1ccc(Cn2ccc3nc(C)c(C(=O)N4CCN(c5ccccc5F)CC4)cc3c2=O)cc1` the AC50 was 20 µM [falling, partial curve].
With `Oc1c(C(Nc2nc3ccccc3s2)c2ccco2)ccc2cccnc12` (stereo unspecified) the AC50 was 31.6 µM [rising, single point] [measured here: IkB-luc green channel].
With `COC(=O)c1cc2sc(C)cc2n1CC(=O)Nc1cccc(SC)c1` the AC50 was 25.1 µM [falling, single point].
With `COc1ccc(NC(=O)c2cc(S(=O)(=O)NCCC3=CCCCC3)ccc2F)cc1` the AC50 was 25.1 µM [falling, partial curve].
In the case of `COc1ccc(-c2nc3cc(C(C)C)ccc3o2)cc1NC(=O)c1ccc(C)c(Cl)c1`, the AC50 is reported as 2 µM [falling, full curve].
In the case of `FC(F)(F)c1ccc(-c2noc(-c3ccccc3Br)n2)cc1`, the AC50 is reported as 0.501 µM [rising, full curve].
With `CCN(CC)C(=O)c1sc2c(c1C)c(=O)n(-c1ccc(C)c(C)c1)c(=O)n2Cc1cccc(Cl)c1` the AC50 was 0.631 µM [rising, full curve].
With `Cc1ccc(OCC(=O)Nc2ccc3nc(SCC(=O)N4CCOCC4)sc3c2)cc1C` the AC50 was 6.31 µM [falling, partial curve].
For `COc1ccc(-c2cc(C(=O)N3CCCc4ccccc43)no2)cc1OC`, the AC50 was 2.51 µM [falling, full curve].
In the case of `O=C1c2ccccc2NC(c2ccc(Cl)cc2Cl)N1O` (stereo unspecified), the AC50 is reported as 0.631 µM [falling, full curve].
In the case of `O=c1[nH]nc(Sc2ncnc3sccc23)n1CCc1ccccc1`, the AC50 is reported as 15.8 µM [falling, partial curve].
With `COc1cccc(C(=O)CSc2nnc(COc3cccc4cccnc34)o2)c1` the AC50 was 25.1 µM [falling, partial curve].
With `O=C1CN(C(=O)c2ccc(S(=O)(=O)N3CCCCC3)cc2)C(c2ccc(F)cc2)c2cc(Br)ccc2N1` (stereo unspecified) the AC50 was 0.794 µM [falling, single point].
In the case of `Cc1ccc2oc(-c3cccc(NC(=O)C4CCCO4)c3)nc2c1` (stereo unspecified), the AC50 is reported as 12.6 µM [falling, partial curve].
In the case of `O=C(COc1ccccc1[N+](=O)[O-])Nc1cc(-c2nc3cc(Cl)ccc3o2)ccc1Cl`, the AC50 is reported as 10 µM [falling, full curve].
In the case of `COc1cc2nc(N3CCN(C(=O)OCc4ccccc4)[C@H](C(=O)NC(C)(C)C)C3)nc(N)c2cc1OC`, the AC50 is reported as 7.94 µM [falling, single point].
In the case of `Cc1cc(C)c(S(=O)(=O)NCc2csc(-c3ccccc3)n2)c(C)c1`, the AC50 is reported as 20 µM [falling, single point].
In the case of `O=C(CSc1nc2c([nH]c3ccccc32)c(=O)n1-c1ccc(F)cc1)NCc1ccco1`, the AC50 is reported as 0.794 µM [rising, partial curve].
In the case of `CCSc1nnc2c(n1)OC(c1sccc1C)N(C(C)=O)c1ccccc1-2` (stereo unspecified), the AC50 is reported as 15.8 µM [falling, partial curve].
In the case of `COC(=O)c1c(C)oc2ccc(N(C(=O)Oc3ccccc3)S(=O)(=O)c3ccc(C(C)(C)C)cc3)cc12`, the AC50 is reported as 0.794 µM [falling, partial curve].
In the case of `Cc1c(C)n(C)c2ccc(C(=O)NCCc3ccc(Cl)cc3)cc12`, the AC50 is reported as 15.8 µM [falling, single point].
With `O=c1oc(-c2cccs2)nc2sc3c(c12)CCCCC3` the AC50 was 0.0251 µM [falling, full curve].
For `Cc1c(C(=O)Nc2ccc(F)c(F)c2)oc2ccc(S(=O)(=O)N3CCC4(CC3)OCCO4)cc12`, the AC50 was 10 µM [falling, partial curve].
For `O=C(Nc1c(-c2ccc(F)cc2)nc2ccccn12)c1cccc(F)c1`, the AC50 was 25.1 µM [falling, single point].
For `Cc1ccc(C2C=C(c3ccc(F)cc3)Nc3nc(CCCO)nn32)cc1` (stereo unspecified), the AC50 was 15.8 µM [falling, partial curve].
For `Cc1cccc(-n2nnc(C(=O)Nc3ccc(F)cc3)c2N)c1`, the AC50 was 3.98 µM [falling, partial curve].
For `COc1ccc(OC)c(NC(=O)c2cnc(N3CCCC3)nc2C)c1`, the AC50 was 39.8 µM [falling, single point].
For `O=C(CN1C(=O)CCc2cc(S(=O)(=O)N3CCOCC3)ccc21)NCc1ccccc1Cl`, the AC50 was 15.8 µM [falling, partial curve].
